Data: US20160090556A1, “PRODUCTS COMPRISING MALODOR REDUCTION MATERIALS” (The Procter & Gamble Company, priority 2014, published 2016)
Where two headings read alike, the source gives them in different places. Some compounds share one wording; it may come from a single statement.

Key:
[1] = Melamine formaldehyde PMC Headspace Response Ratio; conditions: for Comment Code: Melamine formaldehyde PMC Headspace Response Ratio: code letter I
[2] = Melamine formaldehyde PMC leakage; conditions: for Comment Code: Melamine formaldehyde PMC leakage: code letter J
[3] = class code letter within Comment Code

SMILES | Comment Code: Melamine formaldehyde PMC Headspace Response Ratio [1] | Comment Code: Melamine formaldehyde PMC leakage [2] | Melamine formaldehyde PMC Headspace Response Ratio (Comment Code I) [1, 3] | Melamine formaldehyde PMC leakage (Comment Code J) [2, 3] | other results
CNC(=O)C(C)(C(C)C)C(C)C [Material 846] | I (Melamine formaldehyde PMC Headspace Response Ratio greater than or equal to 10) | J (Melamine formaldehyde PMC leakage less than or equal to 5%) | – | – | –
C=C1C(O)CC2CC1C2(C)C (stereo not shown) [Material 974] | – | – | – | – | Melamine formaldehyde PMC Headspace Response Ratio (Comment Code I) [1]: I (Melamine formaldehyde PMC Headspace Response Ratio greater than or equal to 10); Melamine formaldehyde PMC leakage (Comment Code J) [2]: J (Melamine formaldehyde PMC leakage less than or equal to 5%)
C=C[C@](C)(O)CCC=C(C)C [Material 888] | I (Melamine formaldehyde PMC Headspace Response Ratio greater than or equal to 10) | J (Melamine formaldehyde PMC leakage less than or equal to 5%) | – | – | –
C=C1CCCC(C)(C)C1C(=O)C=CC (stereo not shown) [Material 331] | – | – | I (Melamine formaldehyde PMC Headspace Response Ratio greater than or equal to 10) | J (Melamine formaldehyde PMC leakage less than or equal to 5%) | –
COC(C)(C)CCCC(C)CC=O (stereo not shown) [Material 126] | – | – | I (Melamine formaldehyde PMC Headspace Response Ratio greater than or equal to 10) | J (Melamine formaldehyde PMC leakage less than or equal to 5%) | –
CC(C)(C)[C@@H]1CCCC[C@H]1O (relative stereo) [Material 1071] | I (Melamine formaldehyde PMC Headspace Response Ratio greater than or equal to 10) | J (Melamine formaldehyde PMC leakage less than or equal to 5%) | – | – | –
CC(C)C1CCC(CO)CC1 (stereo not shown) [Material 133] | I (Melamine formaldehyde PMC Headspace Response Ratio greater than or equal to 10) | J (Melamine formaldehyde PMC leakage less than or equal to 5%) | – | – | –
CCCC(C)(S)CO (stereo not shown) [Material 1098] | I (Melamine formaldehyde PMC Headspace Response Ratio greater than or equal to 10) | J (Melamine formaldehyde PMC leakage less than or equal to 5%) | – | – | –
CC(C)CCCC(C)CC=O (stereo not shown) [Material 27] | I (Melamine formaldehyde PMC Headspace Response Ratio greater than or equal to 10) | J (Melamine formaldehyde PMC leakage less than or equal to 5%) | – | – | –
CC(C)=CCCC(C)CCO (stereo not shown) [Material 899] | I (Melamine formaldehyde PMC Headspace Response Ratio greater than or equal to 10) | J (Melamine formaldehyde PMC leakage less than or equal to 5%) | – | – | –
CC(C)CC1CC(C)(O)CCO1 (stereo not shown) [Material 350] | – | – | I (Melamine formaldehyde PMC Headspace Response Ratio greater than or equal to 10) | J (Melamine formaldehyde PMC leakage less than or equal to 5%) | –
Cc1cccc(CC(C)(C)CO)c1 [Material 140] | – | – | I (Melamine formaldehyde PMC Headspace Response Ratio greater than or equal to 10) | J (Melamine formaldehyde PMC leakage less than or equal to 5%) | –
CCCCCC1CCCC(=O)O1 (stereo not shown) [Material 464] | – | – | I (Melamine formaldehyde PMC Headspace Response Ratio greater than or equal to 10) | J (Melamine formaldehyde PMC leakage less than or equal to 5%) | –
C=C(C)C1CCC(C)C(=O)C1 (stereo not shown) [Material 443] | I (Melamine formaldehyde PMC Headspace Response Ratio greater than or equal to 10) | J (Melamine formaldehyde PMC leakage less than or equal to 5%) | – | – | –
C=CC1(C)CCC(C(C)(C)O)O1 (stereo not shown) [Material 156] | – | – | I (Melamine formaldehyde PMC Headspace Response Ratio greater than or equal to 10) | J (Melamine formaldehyde PMC leakage less than or equal to 5%) | –
CC(C)C1=CCC(C)(O)CC1 (stereo not shown) [Material 982] | – | – | – | – | Melamine formaldehyde PMC Headspace Response Ratio (Comment Code I) [1]: I (Melamine formaldehyde PMC Headspace Response Ratio greater than or equal to 10); Melamine formaldehyde PMC leakage (Comment Code J) [2]: J (Melamine formaldehyde PMC leakage less than or equal to 5%)
CCC(C)(O)CCCC(C)C (stereo not shown) [Material 1054] | I (Melamine formaldehyde PMC Headspace Response Ratio greater than or equal to 10) | J (Melamine formaldehyde PMC leakage less than or equal to 5%) | – | – | –
CC(C)=CCCC(C)CC=O (stereo not shown) [Material 889] | I (Melamine formaldehyde PMC Headspace Response Ratio greater than or equal to 10) | J (Melamine formaldehyde PMC leakage less than or equal to 5%) | – | – | –
C/C=C\C(=O)/C(C)=C(/C)C(C)C [Material 986] | I (Melamine formaldehyde PMC Headspace Response Ratio greater than or equal to 10) | J (Melamine formaldehyde PMC leakage less than or equal to 5%) | – | – | –

SMILES | Comment Code: Melamine formaldehyde PMC Headspace Response Ratio [1] | Comment Code: Melamine formaldehyde PMC leakage [2] | Melamine formaldehyde PMC Headspace Response Ratio (Comment Code I) [1, 3] | Melamine formaldehyde PMC leakage (Comment Code J) [2, 3] | other results
CC1C(C)(C)c2ccccc2C1(C)C [Material 879] | – | – | – | – | Melamine formaldehyde PMC Headspace Response Ratio (Comment Code I) [1]: I (Melamine formaldehyde PMC Headspace Response Ratio greater than or equal to 10); Melamine formaldehyde PMC leakage (Comment Code J) [2]: J (Melamine formaldehyde PMC leakage less than or equal to 5%)
CCCc1ccc(O)c(OC)c1 [Material 440] | I (Melamine formaldehyde PMC Headspace Response Ratio greater than or equal to 10) | J (Melamine formaldehyde PMC leakage less than or equal to 5%) | – | – | –
CCCCCC1(C)CCC(C)(C)C1=O (stereo not shown) [Material 1115] | I (Melamine formaldehyde PMC Headspace Response Ratio greater than or equal to 10) | J (Melamine formaldehyde PMC leakage less than or equal to 5%) | – | – | –
CC(=O)OC(C)C1CCCC(C)(C)C1 (stereo not shown) [Material 1011] | I (Melamine formaldehyde PMC Headspace Response Ratio greater than or equal to 10) | J (Melamine formaldehyde PMC leakage less than or equal to 5%) | – | – | –
CCC(C)(O)/C=C/C=C(C)C (stereo not shown) [Material 81] | I (Melamine formaldehyde PMC Headspace Response Ratio greater than or equal to 10) | J (Melamine formaldehyde PMC leakage less than or equal to 5%) | – | – | –
Cc1coc2c1CCC(C)C2 (stereo not shown) [Material 802] | – | – | – | – | Melamine formaldehyde PMC Headspace Response Ratio (Comment Code I) [1]: I (Melamine formaldehyde PMC Headspace Response Ratio greater than or equal to 10); Melamine formaldehyde PMC leakage (Comment Code J) [2]: J (Melamine formaldehyde PMC leakage less than or equal to 5%)
CC(C)C1CCC(C(C)O)CC1 (stereo not shown) [Material 83] | – | – | I (Melamine formaldehyde PMC Headspace Response Ratio greater than or equal to 10) | J (Melamine formaldehyde PMC leakage less than or equal to 5%) | –
C=C1CCCC(C)(C)C1C=CC(C)=O (stereo not shown) [Material 324] | – | – | I (Melamine formaldehyde PMC Headspace Response Ratio greater than or equal to 10) | J (Melamine formaldehyde PMC leakage less than or equal to 5%) | –
CC(CCO)CCCC(C)(C)O (stereo not shown) [Material 249] | – | – | I (Melamine formaldehyde PMC Headspace Response Ratio greater than or equal to 10) | J (Melamine formaldehyde PMC leakage less than or equal to 5%) | –
CCC(C)(O)CCC=C(C)C (stereo not shown) [Material 449] | – | – | I (Melamine formaldehyde PMC Headspace Response Ratio greater than or equal to 10) | J (Melamine formaldehyde PMC leakage less than or equal to 5%) | –
CC12CCC(CC1=O)C2(C)C (stereo not shown) [Material 588] | I (Melamine formaldehyde PMC Headspace Response Ratio greater than or equal to 10) | J (Melamine formaldehyde PMC leakage less than or equal to 5%) | – | – | –
CC(=O)/C=C/C1C(C)CCC(C)C1(C)C (stereo not shown) [Material 71] | – | – | I (Melamine formaldehyde PMC Headspace Response Ratio greater than or equal to 10) | J (Melamine formaldehyde PMC leakage less than or equal to 5%) | –
CCOC(=O)C(C)C1CCCCC1 (stereo not shown) [Material 412] | I (Melamine formaldehyde PMC Headspace Response Ratio greater than or equal to 10) | J (Melamine formaldehyde PMC leakage less than or equal to 5%) | – | – | –
CC(C)C12CCC(C)(O)C1C2 (stereo not shown) [Material 1019] | I (Melamine formaldehyde PMC Headspace Response Ratio greater than or equal to 10) | J (Melamine formaldehyde PMC leakage less than or equal to 5%) | – | – | –
CC1=CC(=O)C2CC1C2(C)C (stereo not shown) [Material 883] | I (Melamine formaldehyde PMC Headspace Response Ratio greater than or equal to 10) | J (Melamine formaldehyde PMC leakage less than or equal to 5%) | – | – | –
CC1CCC2(O)C(C)(C)C3CCC2(C)C1C3 (stereo not shown) [Material 933] | I (Melamine formaldehyde PMC Headspace Response Ratio greater than or equal to 10) | J (Melamine formaldehyde PMC leakage less than or equal to 5%) | – | – | Melamine formaldehyde PMC Headspace Response Ratio (Comment Code I) [1]: I (Melamine formaldehyde PMC Headspace Response Ratio greater than or equal to 10); Melamine formaldehyde PMC leakage (Comment Code J) [2]: J (Melamine formaldehyde PMC leakage less than or equal to 5%)
CCC(C)C(=O)OC(C)C (stereo not shown) [Material 198] | I (Melamine formaldehyde PMC Headspace Response Ratio greater than or equal to 10) | J (Melamine formaldehyde PMC leakage less than or equal to 5%) | – | – | –
C=CC(C)=CCCC(C)(C)O [Material 42] | – | – | I (Melamine formaldehyde PMC Headspace Response Ratio greater than or equal to 10) | J (Melamine formaldehyde PMC leakage less than or equal to 5%) | –
